Test results reported in PubChem BioAssay AID1794845 (National Center for Advancing Translational Sciences (NCATS), 2023).
In all, about 6,900 compounds went through this assay and fewer than 10 were called active. Calls come from the whole dose curve; as a rule, active = well fitted curve in the direction sought with a large enough effect; inconclusive = small, poorly fitted or top-dose-only effect, or another doubt; inactive = no such curve, though single readings can be large or run the other way. The list shows a part of the results.

Amino acid sequences for entries named in this document (tags omitted). A change or cut given only in a name is not applied to a line headed by its entry.
UniProt C7C422: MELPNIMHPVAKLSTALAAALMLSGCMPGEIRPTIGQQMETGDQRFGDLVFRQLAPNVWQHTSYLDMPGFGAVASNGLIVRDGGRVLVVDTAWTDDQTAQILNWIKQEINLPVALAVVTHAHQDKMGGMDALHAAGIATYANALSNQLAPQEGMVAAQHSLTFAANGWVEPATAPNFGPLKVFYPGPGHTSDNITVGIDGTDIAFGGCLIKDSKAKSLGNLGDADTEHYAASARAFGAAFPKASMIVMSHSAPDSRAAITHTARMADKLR

target: Metallo-beta-lactamase type 2 (Klebsiella pneumoniae) (UniProt C7C422); assay: qHTS to identify inhibitors of the New Delhi Metallo-beta-lactamase (NDM): primary screen against the NCATS Gemini Collection; conditions: NDM-1 enzyme, meropenem hydrolysis, absorbance 300 nm; at 38.4 µM (top of the series) unless noted; note: % of control where 0% means no effect
Excerpt: Assay Submitter (PI): James Inglese Ph.D., Patricia Dranchak Ph.D., Mahesh Aitha Ph.D. Assay Development and Screening Technology Laboratory (ADST) National Center for Advancing Translational Sciences (NCATS), Rockville, MD National Institute of Health (NIH), Bethesda, Maryland The metallo-beta-lactamases (MBL) are a main antibiotic resistance mechanism evolved by bacteria. There is an urgent clinical need for MBL inhibitors to mitigate this growing threat. To support a machine-based learning study, qHTS has been used to experimentally test inhibitors identified by prediction tools.
PROTOCOL TABLE (as described by Inglese et al., 2007) SEQUENCE No. (e.g., 1, 2, 3, etc.); […] (e.g., enzyme, Incubation, Reagent, etc.); VALUE; DESCRIPTION 1; NDM-1; 4 uL of 3 nM enzyme [2 nM final] in 50 mM HEPES (pH 7.0), 1 uM […], 0.01% Tween20; Use BioRaptr to dispense into Aurora black, clear bottom low base 1536-well plates 2; Compounds; 23 nL; Use Pin Tool (Wako) to transfer DMSO control and library compounds in DMSO 3; Incubate; >30 min 4; Reagent; 2 uL of 150 uM meropenem [50 uM final] 5; Incubate; 30 min. 6; Detector; Absorbance at 300 nm (bandwidth = 5 nm, 25 flashes/well) on Tecan Infinity NOTES (numbers refer to sequence above) 1; Column 1 of each plate received assay buffer without enzyme and columns 2-48 received enzyme for a final assay concentration of 2 nM. 2; Control plate contained DMSO in columns 1, 2, 3, and 4. 3; Compound interaction with enzyme. 4; Meropenem substrate was prepared in the same assay buffer as step 1 for a final assay concentration of 50 uM and added to all wells across the assay plates. 5; Substrate interaction with enzyme, plateau phase of kinetics. 6; Default reader settings were applied for absorbance read at 300 nm, bandwidth = 5 nm, 25 flashes/well. References: Inglese J, Shamu CE, Guy RK. 2007. Reporting data from high-throughput screening of small-molecule libraries. Nat Chem Biol. doi:10.1038/nchembio0807-438 Yasgar A, Shinn P, Jadhav A, Auld D, Michael S, Zheng W, Austin CP, Inglese J, Simeonov A. 2008. Compound Management for Quantitative High-Throughput Screening. J Lab Autom 13:79 - 89. doi:10.1016/j.jala.2007.12.004

Activity % (negative = inhibition), inactive:
CC(C)NC(=O)C1CCCN1c1nc2ncccc2o1 (stereo not given) 21.4% [at 57.5 µM]
O=C1CN(Cc2ccc(-c3cc(F)cc(F)c3)cc2)CCN1c1cc(Cl)ncn1 12.4%
COc1ccccc1OCCNC(=O)c1ccc2c(c1)N(C)C1CCCCN1C2=O (stereo not given) 13.8%
COc1ccccc1CC(=O)N1CCC2(CC1)N=C(c1ccc(C)cc1)NO2 15.1%
CC[C@@]1(O)CCN(C(=O)c2ccc(CSc3ccccc3)o2)C[C@H]1O 1.35%
O=C(NC1CCCCC1)O[C@@H]1CO[C@H]2[C@@H]1OC[C@@H]2n1nnnc1-c1ccc2c(c1)OCCO2 0.948%
COc1cccc(-c2noc(CCCc3nc(C4CCOC4)no3)n2)c1 (stereo not given) 0.584%
COc1ccc(C2=NOC3(CCCN([S+](=O)([O-])c4cccc(C(F)(F)F)c4)C3)C2)cc1 (stereo not given) -1.7%
CCn1ccc(C(=O)N2CCC(C3CCN(C(C)=O)CC3)C2)n1 (stereo not given) -3.43%
O=C1NCCOCCCN(S(=O)(=O)c2ccccc2)[C@H]2CCCC[C@@H]12 77.7%
O=C(c1sccc1Cl)N1CCn2nc(C(O)c3ccccc3)cc2C1 (stereo not given) -3.42%
Cc1cnc(C)c(-c2cc(O)c3c(c2)CNCCO3)n1 0.329%
CN1CC[C@H]2CN(C(=O)c3ccccc3-n3cccn3)C[C@@]2(C(=O)O)C1 2.24%
O=C(c1ccnnc1)N1CCC2(CCN(Cc3ccccn3)CC2)C(CO)C1 (stereo not given) 3.88%
O=C1NCCCCCN(Cc2cn[nH]c2-c2ccc(F)cc2)[C@H]2CCC[C@@H]12 4.44%
Cc1nc(C)c(C(=O)NCCc2ncc(C)n2C2CC2)s1 0.113%
CN(C)Cc1nnc(C2CC(NC(=O)Cc3noc4ccccc34)C2)n1C (stereo not given) 3.59%
COc1ccc(CNC(=O)C[C@@H]2C[C@H]3O[C@H](CNC4CCNCC4)[C@@H](O)[C@H]3O2)cc1 7.35% [at 57.5 µM]
COc1ncccc1-c1cc2c(nc1OC)nc(CCc1ccccc1)n2C 10.2% [at 57.5 µM]
CCCc1cc(CN(C)C(=O)c2ccc3c(c2)[nH]c(=O)n3C2CCC(O)CC2)[nH]n1 (stereo not given) -0.083%
CC1(C)Cc2nc(C(C)(C)C)ncc2C(NC(=O)CCCN2CCCC2=O)C1 (stereo not given) -3.79%
Cc1noc2c(Nc3ccc(C(N)=O)cc3)cc(-c3ccsc3)nc12 46.4% [at 57.5 µM]
COCC[C@]1(O)CCN(C(=O)Nc2ccc(F)c(C(F)(F)F)c2)C[C@H]1C -2.48%
CC(C)=CCn1c(-c2cc(C)oc2C)cn2cc(C(=O)N(C)CC(C)C)nc2c1=O 2.4%
COc1ccc(N(C)C(=O)c2c(C)oc3c2CN(Cc2ccc(F)cc2)CC3)cc1 -1.33%
O=C(C[C@@H]1O[C@H](CNC(=O)Nc2ccccc2)[C@@H](O)[C@H]1O)NC1CC1 11.6% [at 57.5 µM]
O=C(Nc1ccccc1)N1CCC(N(C(=O)C2CC2)C2CCOCC2)CC1 1.35%
O=C(NC1CC1)C1CCc2nnc(-c3cccnc3)n21 (stereo not given) -1.25% [at 57.5 µM]
CCO[C@H]1CN(C(=O)C(C)(C)Oc2ccc3c(c2)CCC3)C[C@@H]1O 1.81%
Cc1nc2ccccn2c1C(=O)NC(C)c1cnn(-c2ccccn2)c1C (stereo not given) 8.57%
COc1ccc(S(=O)(=O)NCC2Cn3cccc3C(=O)N2Cc2ccccc2)cc1 (stereo not given) 15.7%
Clc1ccc2oc([C@H]3CCN(Cc4ccccn4)C3)nc2c1 32.8% [at 57.5 µM]
O=C(NCC1CN(C(=O)c2cnccn2)CC12CCOCC2)N1CCCC1 (stereo not given) -2.99%
Cc1nc2cc(S(=O)(=O)N3CCOCC3)ccc2n1CCNC(=O)C1CC1 6.14%
Cc1ccc(CN2CCc3nc(C(=O)Nc4cccnc4)oc3CC2)o1 37.7% [at 57.5 µM]
O=C(NCc1cccc(C(F)(F)F)c1)c1nc2sccn2c1-c1ccccc1 4.77%
COc1ccc(CNC(=O)O[C@H]2COCCN(c3nc4ccccc4s3)C2)cc1 12.3% [at 57.5 µM]
Cc1ccncc1C(=O)N1CCCn2ccnc2C1c1ccccc1 (stereo not given) 14.2%
O=C(Nc1ccc(Cl)nc1)c1cccn2cncc12 16% [at 57.5 µM]
Cc1cc(C)n(C2CCN(c3nccc(-c4ccccn4)n3)C2)n1 (stereo not given) 25.4%
O=C1NCC2(CCN(C(=O)c3ccccc3C3CCNC3)CC2)O1 (stereo not given) 1.34%
CC(=O)NCCCC(=O)N1CCOC2(CCN(C(=O)NC(C)C)CC2)C1 7.15%
O=C(c1cnc(C23CC4CC(CC(C4)C2)C3)[nH]c1=O)N1C[C@H]2CNC[C@H]2C1 10.4%
O=[S+]1([O-])c2cccnc2OC(Cn2cccc2)CN1Cc1cccc(F)c1 (stereo not given) -9.25% [at 16.1 µM]
CSCC(=O)N1C[C@@H](NC(=O)NC(C)C)C[C@H]1C(=O)N[C@H](Cc1c[nH]c2ccccc12)C(N)=O 10.2%
N#Cc1cccc(-c2ccnc(N[C@H]3CO[C@H]4[C@@H]3OC[C@H]4OC(=O)NC3CCCCC3)n2)c1 22.5%
Cc1ccc(CCN2CCCCC23Cc2ccccc2CN([S+](C)(=O)[O-])C3)cc1 (stereo not given) -10.2%
COc1ccc(NC(=O)N[C@H]2[C@H](O)[C@@H](Sc3ccccc3)[C@@H]3OC[C@H]2O3)cc1 1.2% [at 57.5 µM]
CC(=O)N1CCCN(c2ncnc3c2CN(c2ccc([N+](=O)[O-])cc2)C(=O)N(C)C3)CC1 9.56%
O=C(c1cccnc1OC1CCN(Cc2ccccn2)C1)N1CCCCC1 (stereo not given) 2.36%
COC(=O)[C@H]1CCCN1C(=O)[C@@H]1C[C@@H](NS(=O)(=O)c2cccs2)CCN1C(=O)COCC(=O)O -2.68%
CCn1nc(C)c(-c2cc(C(=O)NCCc3noc(COC)n3)no2)c1C 3.87%
CC(C)CCN1CCC(O)(c2csc(CN(C)Cc3cccnc3)n2)CC1 33.5% [at 57.5 µM]
NCCc1cccc(CN2CCCC(CO)(CC3CC3)C2)c1 (stereo not given) -4.92%
COc1ccc(CN2C[C@H]3CN(S(=O)(=O)c4ccc(C)cc4)CCN3C2=O)cc1 -1.04% [at 57.5 µM]
CN(C)c1nc2c(c(N3C[C@@H](CN4CCCC4)[C@@H](CO)C3)n1)CCCC2 -5.65%
Cc1nccn1CCC1CCN(c2nccc(-c3ccccn3)n2)CC1 -11%
Cc1ccccc1C(=O)N(C)C1CCCc2ccccc21 (stereo not given) -0.841% [at 57.5 µM]
COCC(=O)N1CCC(C(=O)NC(C)c2ccc3c(c2)OCCCO3)CC1 (stereo not given) 3.88%
COc1ccc(C(=O)N2CCC23Cc2ccccc2NC3=O)cc1 (stereo not given) 2.42% [at 57.5 µM]
C[S+](=O)([O-])N1CC2(CCCCN2Cc2ccc(Cl)cc2)Cc2ccccc21 (stereo not given) -5.65%
CC(C)c1ccc(CN2CC(CNC(=O)c3cnn(C)c3)C3(C2)CN(c2ccccc2)C3)cc1 (stereo not given) -1.54%
COCCC1(NS(=O)(=O)N(C)C)CCN(S(C)(=O)=O)CC1 21.7%
CNCc1cn(C[C@H]2O[C@@H](CC(=O)NCc3ccc(F)cc3)[C@H](O)[C@@H]2O)nn1 20.6% [at 57.5 µM]
CCNC(=O)NC1(CCOC)CCN(C(=O)c2ccoc2)CC1 5.67%
Cc1ccsc1CN1CCC2(CC1)Cc1ccccc1CNC2=O 0.234%
COc1ccccc1C(=O)N1CCCCCC1CN1CCc2ccccc2C1 (stereo not given) 4.66%
Cc1ccc(-c2cccc(CN3CCCC(c4nc5ccc(C)cc5c(=O)[nH]4)C3)c2)c(C)c1 (stereo not given) -0.327%
O=C(CCn1ccc(=O)[nH]c1=O)N[C@H](c1cccs1)C1CC(O)C1 (stereo not given in full) 0.26%
COc1cccc(S(=O)(=O)N2C[C@@H](F)C[C@H]2C(=O)N2CCc3ccccc3C2)c1 -2.34%
O=C(c1cc(-c2ccc(F)cc2)n[nH]1)N1CCC(OCC2CC2)C1 (stereo not given) -0.497%
COC[C@H]1CCCN1Cc1nc(C2(O)CCN(C(=O)CC(C)(C)C)CC2)cs1 -2.78% [at 57.5 µM]
CCCNC(=O)C1COC2(CCN(C(=O)Cc3ccccc3)CC2)N1C(=O)c1cccc(C)c1 (stereo not given) -13%
COc1ccccc1N1CCN([C@@H]2[C@H](O)[C@H](CO)O[C@@H]2CNC2CCCCC2)CC1 19.4%
CCNC(=O)N1CCC[C@@H](O)[C@H](NC(=O)c2ccc(OCc3c(C)noc3C)cc2)C1 17.7% [at 57.5 µM]
COc1cc2c(cc1CN1CCn3nc(C(O)CO)cc3C1)OCCO2 (stereo not given) -4.89%
O=C1[C@H]2CN(Cc3cccc(Cl)c3F)C[C@H]2C(=O)N1Cc1ccc2c(c1)OCO2 2.66%
COc1cccc([S+](=O)([O-])N2CCC3(C2)C(=NC2CCCCC2)NC(=O)N3c2cc(F)cc(F)c2)c1 (stereo not given) -0.878%
Cn1cccc1C(=O)N[C@H]1C[C@@H](C(=O)O)N(C(=O)CSCC(=O)N2C[C@@H](NC(=O)c3cccn3C)C[C@H]2C(=O)O)C1 5.41%
O=C(CC1C(=O)NCCN1Cc1cccc(Oc2ccccc2)c1)NCc1ccoc1 (stereo not given) 28.6%

Compounds above that contain a tert-butyl group:
Activity % (negative = inhibition), inactive:
CC1(C)Cc2nc(C(C)(C)C)ncc2C(NC(=O)CCCN2CCCC2=O)C1 (stereo not given) -3.79%
COC[C@H]1CCCN1Cc1nc(C2(O)CCN(C(=O)CC(C)(C)C)CC2)cs1 -2.78% [at 57.5 µM]

Among those listed so far, 3 contain a CF3 group.
Activity % (negative = inhibition), inactive:
COc1ccc(C2=NOC3(CCCN([S+](=O)([O-])c4cccc(C(F)(F)F)c4)C3)C2)cc1 (stereo not given) -1.7%
COCC[C@]1(O)CCN(C(=O)Nc2ccc(F)c(C(F)(F)F)c2)C[C@H]1C -2.48%
O=C(NCc1cccc(C(F)(F)F)c1)c1nc2sccn2c1-c1ccccc1 4.77%
